We go through one compound from patent US8153167B2, “Herbal medicine for osteoporosis and related conditions” (Medipearl Pte Ltd., priority 2007, dated 2012).

The assay has as its system ovariectomized rats. In words: ovariectomized rat osteoporosis animal model. Format: in vivo. The settings on record: three months, dose not given. On the procedure: Materials have been tested in ovariectomized rats, a popular and generally accepted osteoporosis animal model.
After orally dosing continuously for three months at 0.12, 0.25, 0.5 and 0.8 g/kg/day, twice a day, the bone mass index, wet weight and dry weight of femur, bone mineral densities of femur and lumbar were measured and calculated. Body weights of rats were measured weekly.
The effects of the purified composition on the body weight of the rats in the groups described above were determined.
We measured the body weight of each experimental animal group weekly. The ovariectomized rats had been noticed to have a pronounced body weight increase compared to the sham-operated normal control group.

In the case of `NCCCC(O)(P(=O)(O)O)P(=O)(O)O` [Fosamax ®], the “Bone mineral densities, Femur ( x ± s)” value is recorded as 0.1436 ± 0.00483 and the “Bone mineral densities, Lumbar Spine ( x ± s)” value was 0.1610 ± 0.00774. The “Bone Mass Index ( x ± s)” value (femur) is on record as 3.4202 ± 0.2476.
